Results: the supplement of paper PMC12823440, “Inhibitors supercharge kinase turnover through native proteolytic circuits” (Nature, 2025)
Counter-ions that a name gives are not always drawn. The list shows a part of the results. Hit calls seldom repeat between salt and free forms of one compound.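 In K562 cells expressing nanoluciferase-fused kinases, luminescence was recorded at 4 h intervals between 2 and 18 h, normalized as percent of control with DMSO at 100% and a positive control at 0%. A significant (2 sigma) signal drop marks a time point as decreased. The authors' rule for a hit is not shown and takes in more than the number of time points.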

By UniProt entry, the sequences of proteins in these tests, tags left out. Where a name states a change or a piece, a line headed by the entry shows the natural chain unless it says otherwise.
UniProt Q9Y616: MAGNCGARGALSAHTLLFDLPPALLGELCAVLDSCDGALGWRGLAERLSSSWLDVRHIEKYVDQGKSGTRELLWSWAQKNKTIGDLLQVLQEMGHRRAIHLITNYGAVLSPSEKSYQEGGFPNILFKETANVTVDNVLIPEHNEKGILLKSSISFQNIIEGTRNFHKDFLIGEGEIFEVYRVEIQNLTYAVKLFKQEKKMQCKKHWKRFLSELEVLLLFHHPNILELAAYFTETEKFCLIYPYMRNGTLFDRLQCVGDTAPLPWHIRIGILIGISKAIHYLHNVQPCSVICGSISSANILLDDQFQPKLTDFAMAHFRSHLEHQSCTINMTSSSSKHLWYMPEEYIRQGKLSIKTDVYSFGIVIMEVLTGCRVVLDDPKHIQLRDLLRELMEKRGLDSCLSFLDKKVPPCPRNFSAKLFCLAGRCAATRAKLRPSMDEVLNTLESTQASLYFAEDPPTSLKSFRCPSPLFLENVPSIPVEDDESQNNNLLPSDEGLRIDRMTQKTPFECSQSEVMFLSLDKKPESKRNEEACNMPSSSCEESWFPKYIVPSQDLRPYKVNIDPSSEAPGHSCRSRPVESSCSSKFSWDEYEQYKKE
UniProt P23458: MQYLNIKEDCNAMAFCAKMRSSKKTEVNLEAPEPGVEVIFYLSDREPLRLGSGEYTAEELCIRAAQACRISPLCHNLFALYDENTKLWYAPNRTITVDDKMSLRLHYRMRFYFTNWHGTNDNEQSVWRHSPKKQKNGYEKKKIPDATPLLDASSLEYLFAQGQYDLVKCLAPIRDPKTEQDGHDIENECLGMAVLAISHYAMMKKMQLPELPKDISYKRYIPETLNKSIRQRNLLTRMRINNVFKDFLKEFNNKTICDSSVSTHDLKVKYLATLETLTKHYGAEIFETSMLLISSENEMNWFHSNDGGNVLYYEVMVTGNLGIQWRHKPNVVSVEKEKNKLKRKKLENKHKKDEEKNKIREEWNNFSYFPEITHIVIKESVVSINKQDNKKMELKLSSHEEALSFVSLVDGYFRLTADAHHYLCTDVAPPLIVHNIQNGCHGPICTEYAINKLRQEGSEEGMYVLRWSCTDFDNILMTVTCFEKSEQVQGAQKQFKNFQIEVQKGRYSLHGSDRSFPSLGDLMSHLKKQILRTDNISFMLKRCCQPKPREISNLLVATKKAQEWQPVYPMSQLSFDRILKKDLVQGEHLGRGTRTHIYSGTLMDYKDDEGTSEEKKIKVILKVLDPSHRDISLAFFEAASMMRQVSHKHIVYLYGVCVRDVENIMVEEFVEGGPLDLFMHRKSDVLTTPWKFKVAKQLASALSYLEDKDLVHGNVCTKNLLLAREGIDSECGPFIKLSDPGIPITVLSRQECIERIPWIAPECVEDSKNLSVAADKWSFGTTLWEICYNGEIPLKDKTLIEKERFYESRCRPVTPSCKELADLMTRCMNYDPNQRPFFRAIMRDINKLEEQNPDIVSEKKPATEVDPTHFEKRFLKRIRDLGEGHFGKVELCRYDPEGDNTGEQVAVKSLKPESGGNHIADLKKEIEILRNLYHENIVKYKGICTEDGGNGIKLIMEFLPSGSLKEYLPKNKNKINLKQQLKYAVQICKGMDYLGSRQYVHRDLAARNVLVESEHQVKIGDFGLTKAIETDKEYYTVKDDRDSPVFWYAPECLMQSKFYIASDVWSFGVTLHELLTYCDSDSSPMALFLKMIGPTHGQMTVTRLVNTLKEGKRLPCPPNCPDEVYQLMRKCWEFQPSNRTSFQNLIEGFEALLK
UniProt P06239: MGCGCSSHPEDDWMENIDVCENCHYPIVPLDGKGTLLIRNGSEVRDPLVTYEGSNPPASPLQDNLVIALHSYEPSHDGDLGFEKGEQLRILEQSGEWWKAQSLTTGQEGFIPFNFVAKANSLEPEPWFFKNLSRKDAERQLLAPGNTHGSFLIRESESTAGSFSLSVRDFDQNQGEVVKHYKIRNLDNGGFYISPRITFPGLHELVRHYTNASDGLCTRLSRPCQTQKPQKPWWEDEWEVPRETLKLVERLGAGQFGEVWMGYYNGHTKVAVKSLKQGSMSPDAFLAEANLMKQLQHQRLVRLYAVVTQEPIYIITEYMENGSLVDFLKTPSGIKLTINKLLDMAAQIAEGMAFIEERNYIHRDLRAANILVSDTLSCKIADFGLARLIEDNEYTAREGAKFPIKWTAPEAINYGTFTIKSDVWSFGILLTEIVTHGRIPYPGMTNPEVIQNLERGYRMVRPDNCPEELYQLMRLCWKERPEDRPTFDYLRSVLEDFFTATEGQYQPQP
UniProt P53667: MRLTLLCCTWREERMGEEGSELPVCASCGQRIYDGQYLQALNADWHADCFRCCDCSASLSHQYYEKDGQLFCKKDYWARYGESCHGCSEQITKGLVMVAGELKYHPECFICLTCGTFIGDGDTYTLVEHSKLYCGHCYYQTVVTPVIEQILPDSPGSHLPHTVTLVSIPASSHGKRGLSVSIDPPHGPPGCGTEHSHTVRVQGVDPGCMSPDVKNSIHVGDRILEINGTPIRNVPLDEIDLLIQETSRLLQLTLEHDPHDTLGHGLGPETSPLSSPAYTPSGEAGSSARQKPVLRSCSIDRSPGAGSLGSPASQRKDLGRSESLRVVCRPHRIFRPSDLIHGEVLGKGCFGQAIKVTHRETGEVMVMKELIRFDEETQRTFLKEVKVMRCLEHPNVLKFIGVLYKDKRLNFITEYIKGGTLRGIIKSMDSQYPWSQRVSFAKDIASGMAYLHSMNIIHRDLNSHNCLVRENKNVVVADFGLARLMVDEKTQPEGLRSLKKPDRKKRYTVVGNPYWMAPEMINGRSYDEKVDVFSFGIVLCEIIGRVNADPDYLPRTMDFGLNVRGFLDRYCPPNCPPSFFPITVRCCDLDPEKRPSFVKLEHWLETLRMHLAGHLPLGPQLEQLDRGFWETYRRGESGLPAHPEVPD
UniProt P53671: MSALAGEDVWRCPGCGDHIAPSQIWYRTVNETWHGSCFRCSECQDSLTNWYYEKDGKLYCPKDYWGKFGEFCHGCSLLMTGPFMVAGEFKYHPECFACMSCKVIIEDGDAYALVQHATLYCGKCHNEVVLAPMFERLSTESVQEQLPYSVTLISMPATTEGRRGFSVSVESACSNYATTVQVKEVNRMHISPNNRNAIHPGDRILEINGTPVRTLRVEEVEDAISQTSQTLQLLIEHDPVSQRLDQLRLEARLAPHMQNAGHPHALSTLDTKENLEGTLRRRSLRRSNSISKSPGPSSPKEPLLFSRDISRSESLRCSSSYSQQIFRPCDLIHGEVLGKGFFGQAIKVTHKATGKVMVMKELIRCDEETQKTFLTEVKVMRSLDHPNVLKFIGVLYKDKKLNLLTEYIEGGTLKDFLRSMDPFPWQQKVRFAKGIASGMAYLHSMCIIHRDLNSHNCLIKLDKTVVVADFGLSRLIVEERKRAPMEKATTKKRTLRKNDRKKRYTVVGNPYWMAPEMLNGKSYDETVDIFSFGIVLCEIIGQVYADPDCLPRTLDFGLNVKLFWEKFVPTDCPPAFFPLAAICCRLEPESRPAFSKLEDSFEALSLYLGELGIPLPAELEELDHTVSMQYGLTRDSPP
UniProt Q8IWU2: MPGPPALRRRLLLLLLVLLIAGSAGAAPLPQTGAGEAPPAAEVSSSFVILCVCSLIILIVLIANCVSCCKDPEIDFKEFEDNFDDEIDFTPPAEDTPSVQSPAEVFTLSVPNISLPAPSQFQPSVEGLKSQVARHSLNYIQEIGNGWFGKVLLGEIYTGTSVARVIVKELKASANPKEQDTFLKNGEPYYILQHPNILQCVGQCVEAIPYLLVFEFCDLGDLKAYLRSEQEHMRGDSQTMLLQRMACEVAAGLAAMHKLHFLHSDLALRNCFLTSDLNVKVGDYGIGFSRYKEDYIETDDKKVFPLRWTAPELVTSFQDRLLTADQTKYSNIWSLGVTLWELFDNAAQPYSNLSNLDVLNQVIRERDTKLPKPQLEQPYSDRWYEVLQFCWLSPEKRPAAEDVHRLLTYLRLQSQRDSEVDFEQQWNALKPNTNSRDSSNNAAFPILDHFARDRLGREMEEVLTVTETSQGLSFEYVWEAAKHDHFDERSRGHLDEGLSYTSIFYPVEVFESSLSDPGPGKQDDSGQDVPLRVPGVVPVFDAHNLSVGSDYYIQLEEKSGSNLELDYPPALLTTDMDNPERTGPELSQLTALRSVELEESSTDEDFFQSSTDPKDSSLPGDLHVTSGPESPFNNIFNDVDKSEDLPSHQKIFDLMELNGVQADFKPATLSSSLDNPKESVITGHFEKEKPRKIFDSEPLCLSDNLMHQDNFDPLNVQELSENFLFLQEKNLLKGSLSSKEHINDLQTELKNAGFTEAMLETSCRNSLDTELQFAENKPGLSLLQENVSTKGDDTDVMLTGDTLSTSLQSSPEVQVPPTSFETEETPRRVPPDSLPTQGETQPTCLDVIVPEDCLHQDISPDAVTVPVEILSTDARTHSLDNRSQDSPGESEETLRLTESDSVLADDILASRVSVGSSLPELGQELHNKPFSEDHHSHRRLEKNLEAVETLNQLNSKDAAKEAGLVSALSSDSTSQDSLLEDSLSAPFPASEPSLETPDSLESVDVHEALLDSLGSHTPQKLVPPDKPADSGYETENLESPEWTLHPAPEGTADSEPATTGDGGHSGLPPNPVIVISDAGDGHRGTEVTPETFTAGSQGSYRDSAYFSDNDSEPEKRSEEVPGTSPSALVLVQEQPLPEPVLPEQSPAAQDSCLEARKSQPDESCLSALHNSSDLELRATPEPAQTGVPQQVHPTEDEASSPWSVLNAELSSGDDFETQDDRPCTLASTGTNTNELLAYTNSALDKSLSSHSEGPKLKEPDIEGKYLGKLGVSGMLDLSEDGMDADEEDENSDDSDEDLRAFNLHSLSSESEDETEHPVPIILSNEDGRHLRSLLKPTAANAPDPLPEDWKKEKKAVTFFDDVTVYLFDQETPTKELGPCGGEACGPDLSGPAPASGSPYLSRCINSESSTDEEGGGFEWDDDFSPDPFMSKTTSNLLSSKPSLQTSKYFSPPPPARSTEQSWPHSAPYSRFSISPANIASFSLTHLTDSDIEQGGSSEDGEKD
UniProt P07948: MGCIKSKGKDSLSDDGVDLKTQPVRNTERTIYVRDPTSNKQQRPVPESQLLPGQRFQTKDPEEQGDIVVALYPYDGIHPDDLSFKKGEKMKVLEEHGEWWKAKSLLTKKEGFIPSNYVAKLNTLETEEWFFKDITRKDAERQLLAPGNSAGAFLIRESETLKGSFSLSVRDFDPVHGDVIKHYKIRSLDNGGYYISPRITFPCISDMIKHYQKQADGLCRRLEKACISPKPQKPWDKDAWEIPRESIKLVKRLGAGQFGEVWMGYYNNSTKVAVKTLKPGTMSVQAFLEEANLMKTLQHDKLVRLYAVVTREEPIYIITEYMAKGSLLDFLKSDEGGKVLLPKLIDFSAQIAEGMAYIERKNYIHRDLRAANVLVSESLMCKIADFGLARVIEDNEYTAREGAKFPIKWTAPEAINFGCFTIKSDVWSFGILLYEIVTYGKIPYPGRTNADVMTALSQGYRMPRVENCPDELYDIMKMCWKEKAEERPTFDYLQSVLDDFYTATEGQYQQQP
UniProt Q12851: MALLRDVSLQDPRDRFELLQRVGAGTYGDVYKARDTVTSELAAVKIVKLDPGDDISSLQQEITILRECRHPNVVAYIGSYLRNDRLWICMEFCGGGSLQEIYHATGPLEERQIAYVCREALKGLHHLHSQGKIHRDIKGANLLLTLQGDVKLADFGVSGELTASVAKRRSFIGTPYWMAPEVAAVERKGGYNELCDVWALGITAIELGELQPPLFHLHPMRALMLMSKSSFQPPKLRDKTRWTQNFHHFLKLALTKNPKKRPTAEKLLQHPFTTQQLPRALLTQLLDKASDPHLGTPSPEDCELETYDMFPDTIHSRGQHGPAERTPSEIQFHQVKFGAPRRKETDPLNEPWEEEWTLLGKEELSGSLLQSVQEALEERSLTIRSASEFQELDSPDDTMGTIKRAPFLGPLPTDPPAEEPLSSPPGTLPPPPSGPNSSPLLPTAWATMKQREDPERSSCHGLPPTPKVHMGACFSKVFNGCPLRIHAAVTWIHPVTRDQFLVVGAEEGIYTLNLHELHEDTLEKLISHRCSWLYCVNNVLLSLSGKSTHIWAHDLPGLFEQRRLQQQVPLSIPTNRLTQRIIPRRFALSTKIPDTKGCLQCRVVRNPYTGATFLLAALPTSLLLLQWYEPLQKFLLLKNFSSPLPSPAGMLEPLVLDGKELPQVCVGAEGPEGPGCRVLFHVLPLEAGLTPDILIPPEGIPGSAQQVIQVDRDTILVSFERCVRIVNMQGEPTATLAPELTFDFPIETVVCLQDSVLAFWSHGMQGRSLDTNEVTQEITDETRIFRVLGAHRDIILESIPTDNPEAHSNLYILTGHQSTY

Columns and labels:
Experiment in all cases: kinase-Nluc reporter destabilization hit call (1 = scored as downregulated) (binary); higher = compound decreases kinase abundance
Settings in all cases: K562; 2-18 h
IRAK3 = IRAK3 (UniProt Q9Y616)
JAK1 = JAK1 (UniProt P23458)
LCK = LCK (UniProt P06239)
LIMK1 = LIMK1 (UniProt P53667)
LIMK2 = LIMK2 (UniProt P53671)
LMTK2 = LMTK2 (UniProt Q8IWU2)
LYN = LYN (UniProt P07948)
MAP2K1 = MAP2K1 (UniProt Q02750)
MAP2K2 = MAP2K2 (UniProt P36507)
MAP4K2 = MAP4K2 (UniProt Q12851)

Measured: kinase-Nluc reporter destabilization hit call

COC(=O)N[C@@H](C)CNc1nccc(-c2cn(C(C)C)nc2-c2cc(Cl)cc(NS(C)(=O)=O)c2F)n1 [Encorafenib] (10 µM)
inactive: IRAK3 = 0 | JAK1 = 0 | LCK 0 | LIMK1 = 0 | LIMK2 = 0 | LMTK2 = 0 | LYN 0 | MAP2K1 = 0 | MAP2K2 = 0 | MAP4K2 = 0

CN1CC[C@H](c2c(O)cc(O)c3c(=O)cc(-c4ccc(C(F)(F)F)cc4Cl)oc23)[C@H]1CO [(2S,3R)-Voruciclib (hydrochloride)] (2.5 µM)
inactive: IRAK3 = 0 | JAK1 = 0 | LCK 0 | LIMK1 = 0 | LIMK2 = 0 | LMTK2 = 0 | LYN 0 | MAP2K1 = 0 | MAP2K2 = 0 | MAP4K2 = 0

Cc1cccc(-c2[nH]ncc2-c2ccc3ncccc3n2)n1 (10 µM)
inactive: IRAK3 = 0 | JAK1 = 0 | LCK 0 | LIMK1 = 0 | LIMK2 = 0 | LMTK2 = 0 | LYN 0 | MAP2K1 = 0 | MAP2K2 = 0 | MAP4K2 = 0

C=CS(=O)(=O)c1ccc(Nc2nc(OCC3CCCCC3)c3[nH]cnc3n2)cc1 (2.5 µM)
inactive: IRAK3 = 0 | JAK1 = 0 | LCK 0 | LIMK1 = 0 | LIMK2 = 0 | LMTK2 = 0 | LYN 0 | MAP2K1 = 0 | MAP2K2 = 0 | MAP4K2 = 0

OCCN(CCO)c1ccc(C(c2ccc(Cl)cc2)c2ccc(N(CCO)CCO)cc2)cc1 (10 µM)
inactive: IRAK3 = 0 | JAK1 = 0 | LCK 0 | LIMK1 = 0 | LIMK2 = 0 | LMTK2 = 0 | LYN 0 | MAP2K1 = 0 | MAP2K2 = 0 | MAP4K2 = 0

CCc1ccc(C(=O)COc2ccc(CC3SC(=O)NC3=O)cc2)nc1 (stereo not given) (10 µM)
inactive: IRAK3 = 0 | JAK1 = 0 | LCK 0 | LIMK1 = 0 | LIMK2 = 0 | LMTK2 = 0 | LYN 0 | MAP2K1 = 0 | MAP2K2 = 0 | MAP4K2 = 0

CCOc1nc(Nc2ccc(C(=O)N3CCOCC3)cc2OC)nc2[nH]ccc12 [LRRK2 inhibitor 1] (2.5 µM)
inactive: IRAK3 = 0 | JAK1 = 0 | LCK 0 | LIMK1 = 0 | LIMK2 = 0 | LMTK2 = 0 | LYN 0 | MAP2K1 = 0 | MAP2K2 = 0 | MAP4K2 = 0

CCOc1ccccc1C=C1C(=O)Nc2ccccc21 (10 µM)
inactive: IRAK3 = 0 | JAK1 = 0 | LCK 0 | LIMK1 = 0 | LIMK2 = 0 | LMTK2 = 0 | LYN 0 | MAP2K1 = 0 | MAP2K2 = 0 | MAP4K2 = 0

CSc1ccc(CN2CCCC(Nc3ccc4[nH]ncc4c3)C2)cc1 (stereo not given) [Rho-Kinase-IN-1] (10 µM)
inactive: IRAK3 = 0 | JAK1 = 0 | LCK 0 | LIMK1 = 0 | LIMK2 = 0 | LMTK2 = 0 | LYN 0 | MAP2K1 = 0 | MAP2K2 = 0 | MAP4K2 = 0

CC(=O)Nc1nc2ccc(-c3cnc(C)c(NC(=O)OC4CCCCC4)c3)cc2s1 (10 µM)
inactive: IRAK3 = 0 | JAK1 = 0 | LCK 0 | LIMK1 = 0 | LIMK2 = 0 | LMTK2 = 0 | LYN 0 | MAP2K1 = 0 | MAP2K2 = 0 | MAP4K2 = 0

CN(C)C(=O)c1ccc(S(=O)(=O)c2ccc(NC(=O)[C@@](C)(O)C(F)(F)F)c(Cl)c2)cc1 (10 µM)
inactive: IRAK3 = 0 | JAK1 = 0 | LCK 0 | LIMK1 = 0 | LIMK2 = 0 | LMTK2 = 0 | LYN 0 | MAP2K1 = 0 | MAP2K2 = 0 | MAP4K2 = 0

CCCC(=O)Nc1nc2c(ncn2[C@@H]2O[C@@H]3COP(=O)(O)O[C@H]3[C@H]2OC(=O)CCC)c(=O)[nH]1 [Dibutyryl-cGMP (sodium)] (10 µM)
inactive: IRAK3 = 0 | JAK1 = 0 | LCK 0 | LIMK1 = 0 | LIMK2 = 0 | LMTK2 = 0 | LYN 0 | MAP2K1 = 0 | MAP2K2 = 0 | MAP4K2 = 0

CCc1c(C)sc(NC(=S)NC(=O)c2ccc(Cl)cc2)c1C(N)=O (10 µM)
inactive: IRAK3 = 0 | JAK1 = 0 | LCK 0 | LIMK1 = 0 | LIMK2 = 0 | LMTK2 = 0 | LYN 0 | MAP2K1 = 0 | MAP2K2 = 0 | MAP4K2 = 0

COc1nc(-c2cccc3c2OCCO3)ccc1Nc1ccc(CN(C)C)cc1 [RAS inhibitor Abd-7] (10 µM)
inactive: IRAK3 = 0 | JAK1 = 0 | LCK 0 | LIMK1 = 0 | LIMK2 = 0 | LMTK2 = 0 | LYN 0 | MAP2K1 = 0 | MAP2K2 = 0 | MAP4K2 = 0

Cc1cc2cc(Oc3ccnc(Nc4cccc(CS(=O)(=O)NCCN(C)C)c4)n3)ccc2[nH]1 [Sulfatinib] (10 µM)
inactive: IRAK3 = 0 | JAK1 = 0 | LCK 0 | LIMK1 = 0 | LIMK2 = 0 | LMTK2 = 0 | LYN 0 | MAP2K1 = 0 | MAP2K2 = 0 | MAP4K2 = 0

C=CC(=O)N1CCC[C@@H](n2nc(C(=O)Nc3ccc(CC(=O)N(C)C)c(C)c3C)c3c(N)ncnc32)C1 (10 µM)
inactive: IRAK3 = 0 | JAK1 = 0 | LCK 0 | LIMK1 = 0 | LIMK2 = 0 | LMTK2 = 0 | LYN 0 | MAP2K1 = 0 | MAP2K2 = 0 | MAP4K2 = 0

Taken from the entries so far, two compounds:
Cc1cc2cc(Oc3ccnc(Nc4cccc(CS(=O)(=O)NCCN(C)C)c4)n3)ccc2[nH]1 [Sulfatinib] (10 µM)
inactive: IRAK3 = 0 | JAK1 = 0 | LCK 0 | LIMK1 = 0 | LIMK2 = 0 | LMTK2 = 0 | LYN 0 | MAP2K1 = 0 | MAP2K2 = 0 | MAP4K2 = 0

C=CC(=O)N1CCC[C@@H](n2nc(C(=O)Nc3ccc(CC(=O)N(C)C)c(C)c3C)c3c(N)ncnc32)C1 (10 µM)
inactive: IRAK3 = 0 | JAK1 = 0 | LCK 0 | LIMK1 = 0 | LIMK2 = 0 | LMTK2 = 0 | LYN 0 | MAP2K1 = 0 | MAP2K2 = 0 | MAP4K2 = 0

The results go on:

C[C@@H]1C[C@H]2O[C@@]3(O[C@@H]2C(C)(C)O)[C@H](O)[C@@]2(C)[C@@H]4CC[C@H]5C(C)(C)[C@@H](O[C@@H]6OC[C@H](O)[C@H](O)[C@H]6O)CC[C@@]56C[C@@]46CC[C@]2(C)[C@@H]13 [Cimiracemoside C] (10 µM)
inactive: IRAK3 = 0 | JAK1 = 0 | LCK 0 | LIMK1 = 0 | LIMK2 = 0 | LMTK2 = 0 | LYN 0 | MAP2K1 = 0 | MAP2K2 = 0 | MAP4K2 = 0

COc1ccc(CNc2nc(N(CCO)CCO)nc3c2ncn3C(C)C)cc1 (2.5 µM)
inactive: IRAK3 = 0 | JAK1 = 0 | LCK 0 | LIMK1 = 0 | LIMK2 = 0 | LMTK2 = 0 | LYN 0 | MAP2K1 = 0 | MAP2K2 = 0 | MAP4K2 = 0

NS(=O)(=O)c1ccc(N2N=C(c3ccccc3)CC2c2ccccc2)cc1 (stereo not given) (10 µM)
inactive: IRAK3 = 0 | JAK1 = 0 | LCK 0 | LIMK1 = 0 | LIMK2 = 0 | LMTK2 = 0 | LYN 0 | MAP2K1 = 0 | MAP2K2 = 0 | MAP4K2 = 0

O=C(O)c1ccc(N2N=C(Cc3ccccc3)C(=Cc3ccc(-c4ccccc4F)o3)C2=O)cc1 (10 µM)
inactive: IRAK3 = 0 | JAK1 = 0 | LCK 0 | LIMK1 = 0 | LIMK2 = 0 | LMTK2 = 0 | LYN 0 | MAP2K1 = 0 | MAP2K2 = 0 | MAP4K2 = 0

COC1(C(=O)N[C@@H](C)c2ccc(-n3cc(F)cn3)nc2)CCC(c2nc(C)cc(Nc3cc(C)[nH]n3)n2)CC1 (stereo partly drawn) [trans-Pralsetinib] (2.5 µM)
inactive: IRAK3 = 0 | JAK1 = 0 | LCK 0 | LIMK1 = 0 | LIMK2 = 0 | LMTK2 = 0 | LYN 0 | MAP2K1 = 0 | MAP2K2 = 0 | MAP4K2 = 0

c1ccc(-c2nn3c(c2-c2ccnc4cc(OCCN5CCOCC5)ccc24)CCC3)nc1 (10 µM)
inactive: IRAK3 = 0 | JAK1 = 0 | LCK 0 | LIMK1 = 0 | LIMK2 = 0 | LMTK2 = 0 | LYN 0 | MAP2K1 = 0 | MAP2K2 = 0 | MAP4K2 = 0

CC(C)(C)c1cc(C(c2cc3c(cc2O)OCO3)N2CCOCC2)cc(C(C)(C)C)c1O (stereo not given) (2.5 µM)
inactive: IRAK3 = 0 | JAK1 = 0 | LCK 0 | LIMK1 = 0 | LIMK2 = 0 | LMTK2 = 0 | LYN 0 | MAP2K1 = 0 | MAP2K2 = 0 | MAP4K2 = 0

NCCCCCCNS(=O)(=O)c1cccc2c(Cl)cccc12 [W-7 (hydrochloride)] (10 µM)
inactive: IRAK3 = 0 | JAK1 = 0 | LCK 0 | LIMK1 = 0 | LIMK2 = 0 | LMTK2 = 0 | LYN 0 | MAP2K1 = 0 | MAP2K2 = 0 | MAP4K2 = 0

CCN1/C(=C/C(C)=O)Sc2ccc(OC)cc21 (10 µM)
inactive: IRAK3 = 0 | JAK1 = 0 | LCK 0 | LIMK1 = 0 | LIMK2 = 0 | LMTK2 = 0 | LYN 0 | MAP2K1 = 0 | MAP2K2 = 0 | MAP4K2 = 0

COc1ccccc1/C=C1\C(=O)Nc2ccccc21 (10 µM)
inactive: IRAK3 = 0 | JAK1 = 0 | LCK 0 | LIMK1 = 0 | LIMK2 = 0 | LMTK2 = 0 | LYN 0 | MAP2K1 = 0 | MAP2K2 = 0 | MAP4K2 = 0

C[C@@H]1O[C@@H](OC[C@H]2O[C@@H](Oc3cc(O)c4c(c3)O[C@H](c3ccc(O)cc3)CC4=O)[C@H](O)[C@@H](O)[C@@H]2O)[C@H](O)[C@H](O)[C@H]1O [Narirutin] (10 µM)
inactive: IRAK3 = 0 | JAK1 = 0 | LCK 0 | LIMK1 = 0 | LIMK2 = 0 | LMTK2 = 0 | LYN 0 | MAP2K1 = 0 | MAP2K2 = 0 | MAP4K2 = 0

COc1cc(N2CCC(O)CC2)ccc1Nc1cc(Nc2ccccc2S(=O)(=O)C(C)C)c2cc[nH]c2n1 (10 µM)
inactive: IRAK3 = 0 | JAK1 = 0 | LCK 0 | LIMK1 = 0 | LIMK2 = 0 | LMTK2 = 0 | LYN 0 | MAP2K1 = 0 | MAP2K2 = 0 | MAP4K2 = 0

COc1ccc2c(=O)c(-c3ccccc3)coc2c1 [7-Methoxyisoflavone] (10 µM)
inactive: IRAK3 = 0 | JAK1 = 0 | LCK 0 | LIMK1 = 0 | LIMK2 = 0 | LMTK2 = 0 | LYN 0 | MAP2K1 = 0 | MAP2K2 = 0 | MAP4K2 = 0

O=C(Nc1ccc(Cl)c(Cl)c1)Nc1ccc2nnsc2c1 (10 µM)
inactive: IRAK3 = 0 | JAK1 = 0 | LCK 0 | LIMK1 = 0 | LIMK2 = 0 | LMTK2 = 0 | LYN 0 | MAP2K1 = 0 | MAP2K2 = 0 | MAP4K2 = 0

c1cc(-c2cnn3cc(-c4ccc(N5CCNCC5)cc4)cnc23)c2cccnc2c1 (2.5 µM)
inactive: IRAK3 = 0 | JAK1 = 0 | LCK 0 | LIMK1 = 0 | LIMK2 = 0 | LMTK2 = 0 | LYN 0 | MAP2K1 = 0 | MAP2K2 = 0 | MAP4K2 = 0

O=c1nc(N2CCOCC2)oc2c(-c3cccc4c3sc3ccccc34)cccc12 (10 µM)
inactive: IRAK3 = 0 | JAK1 = 0 | LCK 0 | LIMK1 = 0 | LIMK2 = 0 | LMTK2 = 0 | LYN 0 | MAP2K1 = 0 | MAP2K2 = 0 | MAP4K2 = 0

COc1ccc(CN2C3CC2CN(c2ccc(-c4cc(OCC(C)(C)O)cn5ncc(C#N)c45)cn2)C3)cn1 [Selpercatinib] (10 µM)
inactive: IRAK3 = 0 | JAK1 = 0 | LCK 0 | LIMK1 = 0 | LIMK2 = 0 | LMTK2 = 0 | LYN 0 | MAP2K1 = 0 | MAP2K2 = 0 | MAP4K2 = 0

Cc1cc(Nc2cc(CN3CCOCC3)c3nc(C)c(Cc4ccc(Cl)cc4F)n3n2)n[nH]1 [Gandotinib] (2.5 µM)
inactive: IRAK3 = 0 | JAK1 = 0 | LCK 0 | LIMK1 = 0 | LIMK2 = 0 | LMTK2 = 0 | LYN 0 | MAP2K1 = 0 | MAP2K2 = 0 | MAP4K2 = 0
